Experimental data: PubChem BioAssay AID1508597 (Cure First, 2020)

Purpose: 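Survival screen with siRNA in ovarian cancer cells derived from patients, with or without rucaparib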 (primary screen)
System: human ovarian carcinoma lines grown from tumours: OCI-P5x (papillary serous) and OCI-C5x (clear cell)
Reagent: siRNA pool against human genes, 1.25 pmol siRNA per well
Duration: 72 h or 96 h, depending on the cell culture
Conditions: rucaparib 20 µM (about IC30) or vehicle, present until read-out
Rucaparib or vehicle: Rucaparib
Cell line: OCI-C5x (clear cell)
Measured: 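Luminescent ATP-based viability assay read 72 or 96 h after transfection, depending on culture, given as normalised percent viability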
Reading the numbers: viability, normalised: higher = more viable cells remaining
Active means: 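a well counts as a hit if its normalised viability is under 80 percent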
Calls: active = viability under 80%; inactive = viability 80% or more
Shown is an unselected part of the about 2,100 reagents, under one of the conditions tested. 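Calls flag viability under 80% in either arm, not effects specific to rucaparib; the reference for percent is not stated.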 Unmarked entries are inactive. Some reagents were tested in more than one well and are listed for each. No sequences are given here. Not given: the 100% reference.

gene knocked down | technical replicate | viability, normalised (%)
MED14 | 1 | 37.2 (active)
MED14 | 2 | 43.5 (active)
MED14 | 3 | 54.2 (active)
LATS2 | 1 | 54.4 (active)
LATS2 | 2 | 64.3 (active)
LATS2 | 3 | 63.6 (active)
UBE2N | 1 | 95
UBE2N | 1 | 61 (active)
UBE2N | 2 | 81.4
UBE2N | 2 | 53.8 (active)
UBE2N | 3 | 49.7 (active)
UBE2N | 3 | 54.6 (active)
CASK | 1 | 59.9 (active)
CASK | 2 | 74.6 (active)
CASK | 3 | 80.9
ZCWPW2 | 1 | 54.8 (active)
ZCWPW2 | 2 | 43.1 (active)
ZCWPW2 | 3 | 38 (active)
EYA4 | 1 | 41.1 (active)
EYA4 | 2 | 20.1 (active)
EYA4 | 3 | 37.2 (active)
CDKL2 | 1 | 50.4 (active)
CDKL2 | 2 | 56.6 (active)
CDKL2 | 3 | 55 (active)
PFKM | 1 | 49.6 (active)
PFKM | 2 | 60.4 (active)
PFKM | 3 | 54.1 (active)
VRK3 | 1 | 55.7 (active)
VRK3 | 1 | 77.7 (active)
VRK3 | 2 | 83.4
VRK3 | 2 | 55.9 (active)
VRK3 | 3 | 86.7
VRK3 | 3 | 69.2 (active)
MED1 | 1 | 53.5 (active)
MED1 | 2 | 44.4 (active)
MED1 | 3 | 41 (active)
PCDHB10 | 1 | 59.3 (active)
PCDHB10 | 2 | 65.8 (active)
PCDHB10 | 3 | 53.7 (active)
DDX21 | 1 | 55.8 (active)
DDX21 | 1 | 57.7 (active)
DDX21 | 2 | 54.2 (active)
DDX21 | 2 | 38.3 (active)
DDX21 | 3 | 62.6 (active)
DDX21 | 3 | 48 (active)
DDX52 | 1 | 71.4 (active)
DDX52 | 2 | 60.4 (active)
DDX52 | 3 | 61 (active)
PHF12 | 1 | 40.9 (active)
PHF12 | 2 | 34.7 (active)
PHF12 | 3 | 52.3 (active)
MAEL | 1 | 47.1 (active)
MAEL | 2 | 52.4 (active)
MAEL | 3 | 58.4 (active)
WNK4 | 1 | 53.1 (active)
WNK4 | 2 | 50.2 (active)
WNK4 | 3 | 46.4 (active)

Records above whose gene name starts with Z or z (3):
gene knocked down | technical replicate | viability, normalised (%)
ZCWPW2 | 1 | 54.8 (active)
ZCWPW2 | 2 | 43.1 (active)
ZCWPW2 | 3 | 38 (active)
